Experimental data from PMC12670160, “A drug-repurposing screen of FDA- and EMA-approved drugs identifies two NF-κB inhibitors active against eumycetoma” (Journal of Antimicrobial Chemotherapy, 2025).
Where a name gives a salt, the structure may show the parent alone. Read-outs that look alike come from different tables or passages of the source. The campaign covered roughly 5,300 compounds. About 130 (2.5%) showed an effect of 50% or more. This is one part of the list. Bridge positions count the residues as written; N and C are the ends. Peptide text beside a SMILES is read from it.

System: M. mycetomatis strain mm55
Details: 96 h, 2 µM

Row | Compound | % viability (m. mycetomatis hyphae) [%] | % viability (primary screen, metabolic activity vs growth control, inhibitor) [%]
1 | C=CCN1CC[C@]23c4c5ccc(O)c4O[C@H]2/C(=N/NC(=O)c2ccccc2)CC[C@@]3(O)[C@H]1C5 [ONC0001752, naloxonebenzoylhydrazone] | 85.15 | 
2 | C[C@]12CC[C@H]3[C@@H](CCC4=CC(=O)CC[C@@H]43)[C@@H]1CC[C@@H]2O [ONC0001357, nandrolone] | 96.54 | 
3 | CNC(=NS(=O)(=O)c1ccc(Cl)cc1)N1CC(c2ccccc2)C(c2ccc(Cl)cc2)=N1 (centres unmarked) [ONC0004486, slv319] | 118.9 | 
4 | c1ccc(CCCCN2CCC(c3ccccc3)CC2)cc1 [ONC0002517, 4ppbp] | 93.65 | 
5 | Cc1cc(O)ccc1Cl [ONC0000761, chlorocresol] | 76.1 | 
6 | NCC(CC(=O)O)c1ccccc1 (centres unmarked) [ONC0002637, fenigam] | 81.04 | 
7 | C=C(C)[C@H]1CN[C@H](C(=O)O)[C@H]1CC(=O)O [ONC0002703, kainicacid] | 80.33 | 
8 | Cc1ccc(-c2nc3ccc(C)cn3c2CC(=O)N(C)C)cc1 [ONC0004167, zolpidem] | 128.7 | 
9 | CN[C@@H]1C[C@@H](c2ccc(Cl)c(Cl)c2)c2ccccc21 [ONC0001498, indatraline] | 77.66 | 
10 | O=C(O)Cc1cccnc1C(=O)O [ONC0001551, homoquinolinicacid] | 85.08 | 
11 | Clc1ccc(C2=CCCC3CCC2N3)cn1 (centres unmarked) [ONC0001576, ub165] | 86.54 | 
12 | C[C@H](N)[C@H](O)c1ccc(O)c(O)c1 [ONC0000522, levonordefrin] | 66.11 | 
13 | CO[C@H]1[C@H](O)[C@H](O[C@H]2CC[C@@]3(C=O)[C@H](CC[C@@H]4[C@@H]3CC[C@]3(C)[C@@H](C5=CC(=O)OC5)CC[C@]43O)C2)O[C@@H](C)[C@@H]1O [ONC0005585, peruvoside] |  | 87.82
14 | COP(=O)(OC)OC(c1ccc(Cl)cc1)P(=O)(OC)OC (centres unmarked) [ONC0000002, mifobate] | 121.8 | 
15 | CCCC(C)C1(CC)C(=O)NC(=O)NC1=O (centres unmarked) [ONC0002314, pentobarbital] | 69.82 | 
16 | COC(=O)CC[C@@H]1N=C(c2ccccn2)c2cc(Br)ccc2-n2c(C)cnc21 [ONC0001123, remimazolam benzenesulfonate] | 82.85 | 
17 | O=c1n(Cl)c(=O)n(Cl)c(=O)n1Cl [ONC0005303, symclosene] | 72.34 | 
18 | O=C(NCC1CCOCC1)c1cnc(Nc2ccc(Cl)cc2Cl)nc1C(F)(F)F [ONC0005058, gw842166x] | 79.97 | 
19 | CC1=C(O)C(=O)[C@@H]2O[C@@H]2C1=O [ONC0001685, terreicacid] | 61.38 | 

Reprinted at random: three entries already listed.
Row | Compound | % viability (m. mycetomatis hyphae) [%] | % viability (primary screen, metabolic activity vs growth control, inhibitor) [%]
3 | CNC(=NS(=O)(=O)c1ccc(Cl)cc1)N1CC(c2ccccc2)C(c2ccc(Cl)cc2)=N1 (centres unmarked) [ONC0004486, slv319] | 118.9 | 
13 | CO[C@H]1[C@H](O)[C@H](O[C@H]2CC[C@@]3(C=O)[C@H](CC[C@@H]4[C@@H]3CC[C@]3(C)[C@@H](C5=CC(=O)OC5)CC[C@]43O)C2)O[C@@H](C)[C@@H]1O [ONC0005585, peruvoside] |  | 87.82
4 | c1ccc(CCCCN2CCC(c3ccccc3)CC2)cc1 [ONC0002517, 4ppbp] | 93.65 | 

(further entries)

Row | Compound | % viability (m. mycetomatis hyphae) [%] | % viability (primary screen, metabolic activity vs growth control, inhibitor) [%]
20 | Cc1nn(C)c2c1C(c1cccc(Cl)c1)=NCCN2 [ONC0002188, zometapine] | 94.55 | 
21 | CN[C@@H](C)[C@H](O)c1ccccc1 [ONC0000749, ephedrine 1r2s hydrochloride] | 84.07 | 
22 | CSCC[C@H](NC(=O)[C@H](Cc1ccccc1)NC(=O)CNC(=O)CNC(=O)[C@@H](N)Cc1ccc(O)cc1)C(=O)O [ONC0003650, metenkephalin] | 106 | 
23 | NC1CCN(c2cccnc2)C1 (centres unmarked) [ONC0003588, abt202] | 151.6 | 
24 | CN1CCCCC1Cn1cc(C(=O)c2cc([N+](=O)[O-])ccc2I)c2ccccc21 (centres unmarked) [ONC0004629, am1241] | 73.52 | 
25 | Oc1ccc2c3c1O[C@H]1c4[nH]c5ccccc5c4C[C@@]4(O)[C@@H](C2)N(CC2CC2)CC[C@]314 [ONC0001519, naltrindole] | 93.26 | 
26 | O=C(O)CCCO [ONC0003295, sodium oxybate] | 77.46 | 
27 | CC(N)Cc1ccc(O)cc1 (centres unmarked) [ONC0003776, hydroxyamphetamine] | 86.52 | 
28 | CC(=O)[C@H]1CC[C@H]2[C@@H]3CC[C@H]4C[C@H](O)CC[C@]4(C)[C@H]3CC[C@]12C [ONC0001903, 353hydroxypregnan20one] | 61.39 | 
29 | CN1CCN(C(=O)O[C@H]2c3nccnc3C(=O)N2c2ccc(Cl)cn2)CC1 [ONC0002782, eszopiclone] | 79.72 | 
30 | CC(C)(O)[C@H]1[C@@H]2OC(=O)[C@@H]1[C@]1(O)C[C@H]3O[C@]34C(=O)O[C@H]2[C@]14C [ONC0002779, picrotin] | 109.3 | 
31 | C[C@@H]1NC(=O)[C@@H]2CCCN2C(=O)[C@H](CC(N)=O)NC(=O)[C@@H]2CSSC[C@H](N)C(=O)N[C@H]3CSSC[C@H](NC1=O)C(=O)N[C@@H]([C@@H](C)O)C(=O)NCC(=O)N[C@H](C(=O)N[C@@H](Cc1ccc(O)cc1)C(=O)O)CSSC[C@H](NC(=O)[C@H](Cc1ccc(O)cc1)NC(=O)[C@H](CCC(=O)O)NC3=O)C(=O)N2 [ONC0002236, linaclotide] (H-CCEYCCNPACTGCY-OH; disulfide 1-6, 2-10, 5-13) | 72.91 | 
32 | C=CCN.ClCC1CO1 (centres unmarked) [ONC0004792, sevelamer hcl] | 92.43 | 
33 | CN1[C@@H]2CC[C@H]1C[C@@H](OC(=O)c1c[nH]c3ccccc13)C2.CN1[C@@H]2CC[C@H]1C[C@H](OC(=O)c1c[nH]c3ccccc13)C2 [ONC0003140, tropisetron] | 83.9 | 
34 | CC1(C)C(=O)N(c2ccc(C#N)c(C(F)(F)F)c2)C(=O)N1CCCCO [ONC0001028, ru 58841] | 78.08 | 
35 | CN(Cc1cccc(-c2ccccc2)c1)C(=O)Oc1ccc(-c2ccc(C(N)=O)cc2)cc1 [ONC0003622, wwl123] | 91.12 | 
36 | COC1=C[C@@H]2[C@@H]3Cc4ccc(OC)c(O)c4[C@]2(CCN3C)CC1=O [ONC0005014, sinomenine cucoline] | 90.79 | 
37 | COc1ccc(N(C(=O)Oc2c(C)cccc2C)c2ccnc(Nc3ccc(N4CCN(C)CC4)cc3)n2)c(OC)c1 [ONC0001319, wh4023] | 109.2 | 
38 | CCC1(c2ccccc2)C(=O)N(COC)C(=O)N(COC)C1=O [ONC0003244, eterobarb] | 97.7 | 
